Results from patent publication US20220323598A1 (NATIONAL UNIVERSITY CORPORATION TOKAI NATIONAL HIGHER …, published 2022).
No constants are given. Whether binding was seen depends on the method and setting. Some entries that bind do so weakly or less than the wild type.

By UniProt entry, the sequences of proteins in these tests, tags left out. Residues count along the entry.
UniProt Q01973, residues 30-937: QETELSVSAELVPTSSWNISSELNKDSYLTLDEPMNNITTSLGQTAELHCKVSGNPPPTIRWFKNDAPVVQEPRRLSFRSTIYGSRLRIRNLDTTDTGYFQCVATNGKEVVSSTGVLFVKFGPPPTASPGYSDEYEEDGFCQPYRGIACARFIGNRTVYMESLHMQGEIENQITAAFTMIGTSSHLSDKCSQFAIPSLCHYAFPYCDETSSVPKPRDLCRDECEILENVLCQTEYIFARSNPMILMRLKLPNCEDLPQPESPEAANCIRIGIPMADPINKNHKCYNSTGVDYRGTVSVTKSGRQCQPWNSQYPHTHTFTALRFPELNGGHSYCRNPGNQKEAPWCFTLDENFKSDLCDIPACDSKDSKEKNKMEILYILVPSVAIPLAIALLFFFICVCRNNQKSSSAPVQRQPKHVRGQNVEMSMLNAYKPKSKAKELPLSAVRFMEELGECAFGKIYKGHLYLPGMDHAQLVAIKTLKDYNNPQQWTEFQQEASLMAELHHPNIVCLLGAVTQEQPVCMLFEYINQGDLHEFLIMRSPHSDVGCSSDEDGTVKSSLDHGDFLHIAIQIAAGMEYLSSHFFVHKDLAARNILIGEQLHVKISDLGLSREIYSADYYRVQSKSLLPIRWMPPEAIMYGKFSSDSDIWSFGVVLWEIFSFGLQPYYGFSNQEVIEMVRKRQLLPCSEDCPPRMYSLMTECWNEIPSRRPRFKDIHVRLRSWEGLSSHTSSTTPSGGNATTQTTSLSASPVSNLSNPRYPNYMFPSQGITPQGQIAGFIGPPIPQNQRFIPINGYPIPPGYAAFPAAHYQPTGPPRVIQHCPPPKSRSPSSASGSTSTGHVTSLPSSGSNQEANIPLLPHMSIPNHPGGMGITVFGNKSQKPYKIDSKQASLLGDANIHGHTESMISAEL

Tests used:
[1] = target: human ROR1 protein (GenBank accession No. NP_005003.2) (human) (UniProt Q01973); test: flow cytometry, Alexa Fluor 488 labeled antibody at 1 µg/ml on ROR1 high (NCI-H1975, PC-9) and ROR1 low (A427, NCI-H460) expressing cell lines
[2] = target: human ROR1 protein (GenBank accession No. NP_005003.2) (human) (UniProt Q01973); test: flow cytometry on NCI-H358 cells, relative affinity

Row | binding [1] | binding [2] | Binder
1 | binds | – | chimeric antibody M4 (antibody, human IgG1, V domains shown) VH: EVQLVESGGGLVKPGGSLKLSCAASGFTFSSYAMSWGRQTPEKRLEWVAAINSKGGSTYYPDTVKDRFTISRDNAKNTLYLQMSSLRSEDTALYYCARHDERIDYAMDYWGQGTSVTVSS VL: DIKMTQSPSSMYASLGERVTITCKASQDINSYLSWFQQKPGKSPKTLIYRANRLVDGVPSRFSGSGSGQDYSLTISSLEYEDMGIYYCLQYDEFPYTFGSGTKLEIK
2 | – | binds | 2AM_1M17 (antibody, mouse IgG1, V domains shown) VH: EVQLVESGGGLVKPGGSLKLSCAASGFTFSSYAMSWGRQTPEKRLEWVAAINSKGGSTYYPDTVKDRFTISRDNAKNTLYLQMSSLRSEDTALYYCARHDERIDYAMDYWGQGTSVTVSS VL: DIKMTQSPSSMYASLGERVTITCKASQDINSYLSWFQQKPGKSPKTLIYRANRLVDGVPSRFSGSGSGQDYSLTISSLEYEDMGIYYCLQYDEFPYTFGSGTKLEIK
